{
  "sequences": {"note": "Chains of the proteins cited; added tags and fusions are not shown.", "UniProt P53350, whole entry, looked up": "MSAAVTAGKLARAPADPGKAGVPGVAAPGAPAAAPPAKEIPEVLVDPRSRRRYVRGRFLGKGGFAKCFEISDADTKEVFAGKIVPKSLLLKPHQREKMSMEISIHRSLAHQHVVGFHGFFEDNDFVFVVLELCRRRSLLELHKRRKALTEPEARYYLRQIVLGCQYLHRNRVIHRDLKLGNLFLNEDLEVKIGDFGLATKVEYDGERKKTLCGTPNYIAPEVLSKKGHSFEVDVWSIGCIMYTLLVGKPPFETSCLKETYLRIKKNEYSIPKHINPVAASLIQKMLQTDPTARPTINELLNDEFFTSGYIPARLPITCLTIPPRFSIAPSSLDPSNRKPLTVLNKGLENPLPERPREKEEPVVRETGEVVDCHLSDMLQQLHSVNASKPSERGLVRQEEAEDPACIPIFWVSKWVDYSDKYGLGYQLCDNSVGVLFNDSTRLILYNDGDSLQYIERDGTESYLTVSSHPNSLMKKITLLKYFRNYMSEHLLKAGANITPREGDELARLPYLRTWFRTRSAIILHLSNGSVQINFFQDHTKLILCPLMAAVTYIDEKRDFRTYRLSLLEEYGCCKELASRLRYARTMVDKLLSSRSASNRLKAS"},
  "source": "PubChem BioAssay AID720504",
  "about": "(National Center for Advancing Translational Sciences (NCATS), 2013)",
  "note": "The whole screen tested about 360,000 compounds, of which about 10,000 (2.8%) were called active. Inconclusive results, whose numbers are uncertain, are shown with a selection of clear calls. Calls come from the whole dose curve; as a rule, active = well fitted inhibition curve with a large enough effect; inconclusive = small, poorly fitted or top-dose-only effect; inactive = flat fitted curve, though single readings scatter. Potencies of inconclusive entries are doubtful fits and often do not repeat. % is set by controls: 0 for no effect and ±100 for the full control effect; potency is the fitted concentration of half-maximal effect.",
  "data": [
    {"molecular_target": "Serine/threonine-protein kinase PLK1 (Homo sapiens) (UniProt P53350)", "assay": "qHTS for Inhibitors of PLK1-PDB (polo-like kinase 1 - polo-box domain): Primary Screen; note: nearly all actives have a fitted effect of over 65% in size; for max response, negative = inhibition: series mostly up to about 57 µM", "conditions": "Plk1 PBD binding of FITC phosphopeptide, fluorescence polarization", "values": [
      {"smiles": "O=[N+]([O-])c1cccc(C(=S)N2CCN(c3ccccc3)CC2)c1", "Potency": "active: 11.9 µM"},
      {"smiles": "COc1cc(C(=O)Nc2c(C(=O)O)[nH]c3ccc(Br)cc23)cc(OC)c1OC", "Potency": "inconclusive: 23.8 µM [inhibitor, single point]"},
      {"smiles": "O=C(CN1CCCC1=O)NC1C2CC3CC(C2)CC1C3", "note": "(centres undefined)", "Potency": "inconclusive: 26.7 µM [inhibitor, partial curve]"},
      {"smiles": "CCN(c1ccccc1)S(=O)(=O)c1ccc2[nH]c(=O)[nH]c2c1", "Potency": "inconclusive: 21.2 µM [inhibitor, single point]"},
      {"smiles": "CNc1cncc(-c2ccc(NS(C)(=O)=O)cc2)n1", "max response, negative = inhibition": "inactive: 6.53%"},
      {"smiles": "CCc1c(SCCC(=O)O)nc2ccccc2c1C", "Potency": "inconclusive: 29.9 µM [inhibitor, single point]"},
      {"smiles": "COc1cccc(OC)c1C(=O)NC(C)c1ccccc1", "note": "(centres undefined)", "max response, negative = inhibition": "inactive: -1.67%"},
      {"smiles": "Cc1ccc(Cl)cc1-c1cc(C(=O)NCc2cc(C(F)(F)F)cc(C(F)(F)F)c2)[nH]n1", "max response, negative = inhibition": "inactive: 4.34%"},
      {"smiles": "CCCCn1c(=O)c(C(=O)c2ccccc2)nc2ccccc21", "max response, negative = inhibition": "inactive: -7.37%"},
      {"smiles": "O=C(COc1ccccc1/C=C1\\SC(=O)NC1=O)Nc1ccc(F)cc1", "Potency": "inconclusive: 21.2 µM [inhibitor, single point]"},
      {"smiles": "Nc1ccccc1SC1CC(=O)N(Cc2ccccc2)C1=O", "note": "(centres undefined)", "Potency": "inconclusive: 18.9 µM [inhibitor, partial curve]"},
      {"smiles": "O=C(CSc1nnc(-c2ccccn2)o1)Nc1ccccc1", "Potency": "inconclusive: 26.7 µM [inhibitor, partial curve]"},
      {"smiles": "Nc1ccc(N)c(C(=O)O)c1", "Potency": "active: 23.8 µM"},
      {"smiles": "Cc1ccc(NC(=O)CN(C)S(=O)(=O)c2ccc3c(c2)n(C)c(=O)c(=O)n3C)c(C)c1", "Potency": "active: 21.2 µM"},
      {"smiles": "Cc1[nH]c2ccccc2c1C(c1ccccn1)N1CCC(C)CC1", "note": "(centres undefined)", "Potency": "inconclusive: 23.8 µM [inhibitor, partial curve]"},
      {"smiles": "O=C(N/C=C/c1ccco1)NCc1ccccc1", "Potency": "inconclusive: 26.7 µM [inhibitor, partial curve]"},
      {"smiles": "Cc1ccc(C)c(NC(=S)Nc2cccc3cnccc23)c1", "Potency": "inconclusive: 26.7 µM [inhibitor, single point]"},
      {"smiles": "O=C1NCCCC2c3c(cc(Br)c(O)c3Br)OC12N1CCOCC1", "note": "(centres undefined)", "Potency": "inconclusive: 29.9 µM [inhibitor, partial curve]"},
      {"smiles": "CCOc1cc(N2CCOCC2)c(OCC)cc1NC(=O)CN1CCN(Cc2ccc3c(c2)OCO3)CC1", "max response, negative = inhibition": "inactive: 1.29%"},
      {"smiles": "CN1CCc2c(sc3c2C(=O)NC(c2ccccn2)N3)C1", "note": "(centres undefined)", "Potency": "inconclusive: 23.8 µM [inhibitor, partial curve]"},
      {"smiles": "O=C(Nc1nc(-c2cccs2)cs1)c1ccco1", "Potency": "inconclusive: 29.9 µM [inhibitor, partial curve]"},
      {"smiles": "O=[N+]([O-])c1ccc(CSc2nnc(Cc3ccccc3)o2)cc1", "Potency": "inconclusive: 16.8 µM [inhibitor, partial curve]"},
      {"smiles": "c1nc(SSc2ncnc3nc[nH]c23)c2[nH]cnc2n1", "Potency": "active: 0.844 µM"},
      {"smiles": "COc1cccc(CNC(=O)CCN2C(=O)[C@@H]3Cc4ccccc4CN3C2=O)c1", "Potency": "active: 26.7 µM"},
      {"smiles": "COc1cccc(C(=O)OCC(=O)Nc2sc3c(c2C(N)=O)CCC3)c1O", "Potency": "inconclusive: 29.9 µM [inhibitor, partial curve]"},
      {"smiles": "COc1ccc(CC(=O)NNC(=S)NC(=O)c2cccnc2)cc1", "Potency": "inconclusive: 37.7 µM [inhibitor, single point]"},
      {"smiles": "CCOC(=O)C1C(=O)NC(c2ccccc2)=NC1c1ccc(C(C)C)cc1", "note": "(centres undefined)", "max response, negative = inhibition": "inconclusive: -33.2% [inhibitor]"},
      {"smiles": "FC(F)Oc1ccccc1NC(=S)NCCc1ccccc1", "Potency": "inconclusive: 33.6 µM [inhibitor, partial curve, poor fit]"},
      {"smiles": "Cc1ccc(Nc2n[nH]c(=S)s2)cc1F", "Potency": "inconclusive: 13.4 µM [inhibitor, partial curve]"},
      {"smiles": "c1ccc(COn2c(-c3ccccc3)nc3c2CCc2nonc2-3)cc1", "Potency": "inconclusive: 21.2 µM [inhibitor, partial curve]"},
      {"smiles": "O=[N+]([O-])c1ccc(N2CCN(CC(O)COc3ccccc3)CC2)cc1", "note": "(centres undefined)", "Potency": "inconclusive: 23.8 µM [inhibitor, partial curve]"},
      {"smiles": "CCN1CC=C2C(C1)C(c1ccc(Cl)s1)C(C#N)=C(N)C2(C#N)C#N", "note": "(centres undefined)", "Potency": "inconclusive: 21.2 µM [inhibitor, partial curve]"},
      {"smiles": "CC(=O)Nc1ccc(S(=O)(=O)N(C)CC(=O)OC(C)C(=O)N(C)C2CCCCC2)cc1", "note": "(centres undefined)", "Potency": "inconclusive: 37.7 µM [inhibitor, single point]"},
      {"smiles": "CCN(CC(=O)NCc1ccc(Cl)cc1)C(=O)CNS(=O)(=O)c1ccc(NC(C)=O)cc1", "Potency": "inconclusive: 21.2 µM [inhibitor, partial curve]"},
      {"smiles": "O=C(O)Cc1sc(N/N=C\\c2ccccc2)nc1-c1ccccc1", "Potency": "active: 11.9 µM"},
      {"smiles": "Cc1[nH]nc2c1C(c1ccsc1)C(C#N)=C(N)O2", "note": "(centres undefined)", "Potency": "inconclusive: 26.7 µM [inhibitor, single point]"},
      {"smiles": "COc1ccc(-n2c(SCC(=O)Nc3nccs3)nnc2-c2ccoc2C)cc1", "Potency": "inconclusive: 29.9 µM [inhibitor, single point]"},
      {"smiles": "COc1ccccc1N1CCN(C(=O)CCCn2c(=S)[nH]c3ccccc3c2=O)CC1", "max response, negative = inhibition": "inactive: -0.339%"},
      {"smiles": "Cc1ccccc1NC(=O)CSc1ccsc1[N+](=O)[O-]", "Potency": "inconclusive: 29.9 µM [inhibitor, partial curve]"},
      {"smiles": "O=C(NC(Cc1ccccc1)C(=O)N1CCN(S(=O)(=O)c2ccccc2F)CC1)c1ccccc1", "note": "(centres undefined)", "Potency": "inconclusive: 29.9 µM [inhibitor, partial curve]"},
      {"smiles": "Cn1c(=O)c2c([nH]c(=S)n2Cc2ccc(Cl)cc2)n(C)c1=O", "Potency": "active: 10.6 µM"},
      {"smiles": "CC1(C(=O)NNC(=O)c2ccc([N+](=O)[O-])cc2)CC1(Br)Br", "note": "(centres undefined)", "max response, negative = inhibition": "inconclusive: -33.1% [inhibitor]"},
      {"smiles": "CCCCc1c(C)nc2ccccc2c1SCCC(=O)O", "Potency": "inconclusive: 29.9 µM [inhibitor, single point]"},
      {"smiles": "O=C(CCl)Nc1c2c(nn1-c1ccccc1)CSC2", "Potency": "active: 26.7 µM"},
      {"smiles": "CCS(=O)(=O)C1=NSC2=NC(=O)/C(=C\\c3ccc(OC(=O)c4ccco4)cc3)C(=N)N21", "Potency": "inconclusive: 26.7 µM [inhibitor, single point]"},
      {"smiles": "CCC(C)NCCOCCOc1cc(C)c(Cl)c(C)c1", "note": "(centres undefined)", "max response, negative = inhibition": "inactive: -12.2%"},
      {"smiles": "CCC(=O)NC(=S)Nc1ccccc1OC", "Potency": "active: 23.8 µM"},
      {"smiles": "Oc1ccc(/C=N/Nc2cc(N3CCOCC3)nc(N3CCOCC3)n2)cc1", "Potency": "inconclusive: 23.8 µM [inhibitor, single point]"},
      {"smiles": "CCCn1nnc(NC(=S)NC(=O)c2ccc(-c3ccc(Br)cc3)o2)n1", "Potency": "inconclusive: 15 µM [inhibitor, partial curve]"},
      {"smiles": "COc1ccc(CCC(=O)Nc2c(-c3ccc(N(C)C)cc3)[nH][nH]c2=O)cc1", "Potency": "active: 21.2 µM"},
      {"smiles": "O=C(/C=C/c1ccc([N+](=O)[O-])s1)N1CCCCC1", "Potency": "inconclusive: 37.7 µM [inhibitor, single point]"},
      {"smiles": "CCOc1ccc2nc3cc(N=Nc4ccc(N)nc4N)ccc3c(N)c2c1", "Potency": "inconclusive: 29.9 µM [inhibitor, single point]"},
      {"smiles": "Clc1ccc(/C=C/c2ncc[nH]2)c(Cl)c1", "max response, negative = inhibition": "inactive: 3.85%"},
      {"smiles": "C/C=C/c1c(F)c(F)c(Oc2ccc(C(=O)O)cc2)c(F)c1F", "Potency": "inconclusive: 33.6 µM [inhibitor, partial curve]"},
      {"smiles": "NC(=O)CC(NC(=O)c1ccccc1)c1ccc(N2CCC(N3CCCC3)CC2)c([N+](=O)[O-])c1", "note": "(centres undefined)", "Potency": "inconclusive: 23.8 µM [inhibitor, single point]"},
      {"smiles": "O=C(C1=C[C@H](c2ccccc2)C[C@H](OCc2ccc(CO)cc2)O1)N1CCN(Cc2ccc3c(c2)OCO3)CC1", "max response, negative = inhibition": "inactive: 4.08%"},
      {"smiles": "COc1ccc(C2CC(c3ccncc3)=NN2c2ccc(S(N)(=O)=O)cc2)cc1", "note": "(centres undefined)", "Potency": "inconclusive: 29.9 µM [inhibitor, single point]"},
      {"smiles": "O=C(COC(=O)c1ccccc1O)Nc1ccc(N2CCOCC2)cc1", "max response, negative = inhibition": "inactive: -11.9%"},
      {"smiles": "C[N+]1(CC(=O)OCCCC2CCCCC2)CCCC1", "Potency": "active: 29.9 µM"},
      {"smiles": "O=C(CSC1=NCCS1)Nc1nc2ccccc2s1", "Potency": "inconclusive: 21.2 µM [inhibitor, partial curve]"},
      {"smiles": "C=C1c2cccc(O)c2C(O)=C2C(=O)[C@]3(O)C(O)=C(C(N)=O)C(=O)[C@@H](N(C)C)[C@@H]3[C@@H](O)[C@H]12", "max response, negative = inhibition": "inconclusive: -30.4% [inhibitor]"},
      {"smiles": "CCOC(=O)N1CCN(CCC(=O)Nc2ccc(Br)c(C)c2)CC1", "Potency": "inconclusive: 26.7 µM [inhibitor, partial curve]"},
      {"smiles": "S=c1[nH]c(-c2ccc(Cl)cc2)cs1", "Potency": "active: 9.47 µM"},
      {"smiles": "FC(F)(F)COc1nc(N2CCCCC2)nc(N2CCNCC2)n1", "Potency": "inconclusive: 29.9 µM [inhibitor, partial curve]"},
      {"smiles": "CCOC(=O)c1cnc(SCc2nc(N)nc(Nc3ccc(C)cc3)n2)nc1N", "Potency": "inconclusive: 18.9 µM [inhibitor, partial curve]"},
      {"smiles": "CC(C)n1cc(-c2ccc(Cl)cc2)cc(C#N)c1=O", "max response, negative = inhibition": "inactive: -3.49%"},
      {"smiles": "COc1c(Br)cc(/C=N/n2c(-c3ccccc3)n[nH]c2=S)c(O)c1Br", "Potency": "inconclusive: 26.7 µM [inhibitor, partial curve]"},
      {"smiles": "CN1CCN(c2ccncc2S(=O)(=O)N2CCCC2)CC1", "Potency": "inconclusive: 33.6 µM [inhibitor, single point]"},
      {"smiles": "O=C(N/N=C/c1cn[nH]c1-c1ccc(F)cc1)c1ccncc1", "Potency": "inconclusive: 8.44 µM [inhibitor, single point]"}
    ]}
  ]
}
